Laboratory results taken from doi:10.1101/2022.07.18.500257.
The exact form of at least one protein or probe is not confirmed. For some of these results: No signal at the amounts used counts as a negative.

How the values were obtained:
TnpA wild type (TnpAWT) [1] = test: AFM force spectroscopy; conditions: 5' hexynyl on strand 1
TnpA wild type (TnpAWT) [2] = test: competition with a labelled probe; conditions: 12.5-50 uM IR end-2 reduces binding to one-end substrate (AFM)
TnpA3X = test: competition with a labelled probe; conditions: 12.5-50 uM IR end-2 reduces binding to one-end substrate (AFM)
TnpAS911R = test: competition with a labelled probe; conditions: 12.5-50 uM IR end-2 reduces binding to one-end substrate (AFM)

Sequence | binding result (TnpA wild type (TnpAWT) [1]) | binding result (TnpA wild type (TnpAWT) [2]) | binding result (TnpA3X) | binding result (TnpAS911R)
TTTTTTTTTTTTTTTTTTTTCGCGCGCCATGCAATGACAACCGGAAACATGCGATATCGGGCCCAATTCGCCCTATCCTCTAGAGTCGAC / GTCGACTCTAGAGGATAGGGCGAATTGGGCCCGATATCGCATGTTTCCGGTTGTCATTGCATGGCGCGCG [nonspecific DNA (a/b)] | no binding |  |  | 
CCGGCCGCATGCAGTGGGGGTACCGCCAGCATTTCGGAAAAAAACCACGCTAAGAAAATCAGAGTTAAAA (double strand) [IR end-2 (blocking DNA)] |  | binds | binds | binds
